Assay results reported in PMC6617973.
No constants are given. Whether binding was seen depends on the method and setting. In cells and extracts the contact can be indirect. Binding can be weak; no strength is given.

Molecular target: T1, vascular endothelial cadherin (mouse (endogenous in pMECs)) (UniProt P55284)
T1 sequence: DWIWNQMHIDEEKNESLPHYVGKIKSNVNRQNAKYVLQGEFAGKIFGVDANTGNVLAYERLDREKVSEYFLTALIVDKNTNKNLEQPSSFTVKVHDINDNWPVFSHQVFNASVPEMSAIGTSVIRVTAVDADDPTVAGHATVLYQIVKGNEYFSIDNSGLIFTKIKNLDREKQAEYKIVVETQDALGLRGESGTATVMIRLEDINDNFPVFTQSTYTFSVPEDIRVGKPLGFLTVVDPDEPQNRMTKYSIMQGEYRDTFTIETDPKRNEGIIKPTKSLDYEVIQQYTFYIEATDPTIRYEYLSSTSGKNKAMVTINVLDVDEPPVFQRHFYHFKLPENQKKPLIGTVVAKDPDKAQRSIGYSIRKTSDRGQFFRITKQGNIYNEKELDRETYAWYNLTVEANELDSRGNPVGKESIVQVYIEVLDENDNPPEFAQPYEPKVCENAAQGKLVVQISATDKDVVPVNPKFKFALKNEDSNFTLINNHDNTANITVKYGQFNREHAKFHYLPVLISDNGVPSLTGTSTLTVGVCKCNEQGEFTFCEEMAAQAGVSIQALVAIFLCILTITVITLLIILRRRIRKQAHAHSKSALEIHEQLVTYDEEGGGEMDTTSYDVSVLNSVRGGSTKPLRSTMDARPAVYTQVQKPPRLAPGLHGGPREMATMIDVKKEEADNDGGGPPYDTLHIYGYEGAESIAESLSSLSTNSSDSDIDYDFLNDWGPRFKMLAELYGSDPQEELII
Assay: co-IP; VE-Cadherin immunoprecipitates from lysates of F/F and BRAFΔ/Δ pMEC monolayers; Protein G Sepharose with antibody, 4 °C overnight; 25 mM HEPES, 150 mM NaCl, 1 mM EGTA, 0.5% NP-40, 10% glycerol; immunoblot

α catenin (mouse (endogenous in pMECs))
binding: binds
